Data from PubChem BioAssay AID2417 (National Center for Advancing Translational Sciences (NCATS), 2010).
About 4,300 (3.1%) of roughly 140,000 compounds were called active. The shares of active, inactive and inconclusive entries below differ from those in the screen.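 How the source made its calls: active means readout at or below -70, meaning at least 70% loss of cells showing the perinucleolar compartment, a nuclear body marking cancer cells; inconclusive means readout between -30 and a set limit; inactive means the rest.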

assay: High Content Assay for Compounds that inhibit the Assembly of the Perinucleolar Compartment; conditions: PC3M PTB-GFP, PNC prevalence imaging, 16 h; at 10 µM; active compounds read low;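 further: plate controls were DMSO wells for no effect and camptothecin positive control wells for full effect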
In short: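 PC3M cells stably expressing PTB-GFP, 750–1000 cells/well, treated 16 h at 37 °C with compound (23 nl of library stock), in duplicate. After paraformaldehyde fixation and Hoechst stain, imaged at 20x; PNC prevalence scored by image analysis.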

Structure (SMILES) | activity change (PNC), negative = inhibition
CCCc1nc(SCC(=O)c2ccccc2)c2c(=O)n(C)c(=O)n(C)c2n1 | inconclusive: -48.7%
Cc1ccccc1-n1c(-c2ccncc2)n[nH]c1=S | inconclusive: -47.9%
CC(C)(C)c1cc(C(=O)NCc2ccco2)ccn1 | inconclusive: -57.8%
Cc1c(/C=C/C(=O)c2cccs2)cnn1C | inconclusive: -32.1%
CCOc1ccc(S(=O)(=O)N(CC(=O)NC2CCCCC2C)Cc2ccco2)cc1 (stereo not drawn) | inconclusive: -32.6%
Cn1c(=O)n(Cc2ccc(F)cc2)c(=O)c2c1nc1n2CCCN1Cc1ccccc1 | inconclusive: -72.8%
COc1cccc(-c2cc(C(=O)NCc3ccco3)no2)c1 | inconclusive: -34.9%
O=C(NCCC1=CCCCC1)C1CCN(S(=O)(=O)c2cccc3cccnc23)CC1 | inconclusive: -52.3%
COc1ccc(-c2cc(C(=O)OCC(=O)Nc3ccc4c(c3)OCO4)c3ccccc3n2)cc1 | inactive: -15%
COc1ccc(C2C(Oc3ccccc3)C(=O)N2c2cc(C)ccc2C)cc1OC (stereo not drawn) | active: -89%
COc1ccc(NC(=O)Cc2ccccc2)cc1 | inactive: 334%
COC(=O)C1CC(O)CN1C(=O)c1ccco1 (stereo not drawn) | inactive: -10.3%
CCOc1ccc(N=C(NN)c2ccc3ccccc3n2)cc1 | inconclusive: -50.2%
S=C(NCCN1CCOCC1)Nc1ccc(Cl)cc1Cl | inconclusive: -34.6%
O=C(CCCN1CCOCC1)c1ccc2c(c1)OCCO2 | inactive: 26.8%
COC(=O)c1cc(Cl)c(NC(=O)/C=C/c2ccc(OC)c(OC)c2)cc1OC | inactive: -3.06%
Cc1ccccc1NC(=O)CSc1nc(N)c(C#N)c(-c2cccs2)c1C#N | inconclusive: -63.1%
CCCCN1C(=O)C2C(C(=O)Nc3cccc(OC)c3)C3C=CC2(O3)C1C(=O)NC1CCCCC1C (stereo not drawn) | inconclusive: -43.4%
Cc1nn(C)cc1C1C2=C(CC(C)(C)CC2=O)OC2=C1C(=O)CC(C)(C)C2 | inactive: -7.61%
CC1=C(OC(=O)C(C)(C)C)C(C)(C)C(c2ccccc2)OC1=O (stereo not drawn) | inconclusive: -51%
Nc1c(S(=O)(=O)c2cccs2)c2nc3ccccc3nc2n1CC1CCCO1 (stereo not drawn) | inconclusive: -76%
O=C(O)c1cc(Cl)c2c(c1)[C@@H]1C=CC[C@@H]1[C@H](c1ccc(S(=O)(=O)N3CCOCC3)cc1)N2 | inconclusive: -56.5%

Structure (SMILES) | activity change (PNC), negative = inhibition
Cc1cc(C)nc(NC2=NC3CCCCC3N2)n1 (stereo not drawn) | inconclusive: -32%
COc1ccc(/C=C/C(=O)NC(C)C)cc1Br | inconclusive: -51%
CCCCC(CC(O)COCC(C)C)C(=O)NNC(=S)Nc1ccccc1 (stereo not drawn) | inconclusive: -45.6%
Cc1cc(Cl)c(S(=O)(=O)N2CCN(c3ccc(F)cc3)CC2)cc1OCC(=O)NC1CCCCC1 | inconclusive: -35.7%
COc1ccc(C)cc1C(=O)C1CC(C(=O)O)C(C)(C)C1C (stereo not drawn) | inconclusive: -48.3%
Cc1cccc(NC(=O)C(C)Oc2ccccc2C)n1 (stereo not drawn) | inconclusive: -55.9%
CCS(=O)(=O)Nc1cccc(C2=NN(S(=O)(=O)c3ccc(C)cc3)C(c3cccs3)C2)c1 (stereo not drawn) | inactive: 41.7%
CC1=C(C(N)=O)C(c2ccc(C)o2)C(C(N)=O)=C(C)N1 | inconclusive: -52%
CC(C)(C)c1ccc(C(=O)NNc2cc(N3CCCCC3)nc(N3CCCCC3)n2)cc1 | inconclusive: -66.9%
CCC1=NN(C(=O)CCc2ccccc2O)C(O)(C(F)(F)F)C1 (stereo not drawn) | inconclusive: -51.1%
COc1cc(NC(=O)CSc2nc3c(C)ccc(C)c3cc2C)c(C(=O)O)cc1OC | inactive: 37.7%
COC(=O)c1ccccc1NC(=O)c1ccccc1NS(C)(=O)=O | inconclusive: -46.3%
Cc1ccc(S(=O)(=O)NC(C(=O)Oc2cc3oc(=O)cc(C)c3cc2Cl)C(C)C)cc1 (stereo not drawn) | inconclusive: -46.5%
O=C(Nc1ccc(S(=O)(=O)N2CCCc3ccccc32)cc1)C1CCCO1 (stereo not drawn) | inactive: 0.794%
O=C(NCCCN1CCOCC1)c1cccs1 | inactive: 16.9%
COc1ccc(CCN(C(=O)C(F)(F)F)C(C(=O)NC2CCCCC2)c2ccc(C)s2)cc1OC (stereo not drawn) | inconclusive: -38.4%
COc1ccc(C(C)=O)cc1COC(=O)c1cccc(N(C)C)c1 | inconclusive: -49.4%
CCCCC(=O)NC(=S)Nc1ccccc1N1CCCCC1 | inconclusive: -46.2%
COCCNC(=O)CN(CC1CCCO1)C(=O)CCC(=O)Nc1ccccn1 (stereo not drawn) | inconclusive: -43.2%
O=C1C2C3C=CC(C4CC34)C2C(=O)N1c1nccs1 (stereo not drawn) | inactive: 23.7%
Cc1cc(C)nc(NC(=O)/C=C/c2ccccc2Cl)c1 | inconclusive: -44.5%
COc1ccnc(Oc2ccc(F)cc2)c1C(=O)N/C=N/OCc1ccc(F)cc1 | inconclusive: -34.7%

Structure (SMILES) | activity change (PNC), negative = inhibition
O=c1oc2ccccc2c(Nc2ccc3ccccc3c2)c1[N+](=O)[O-] | inconclusive: -47.1%
O=S(=O)(Nc1nccs1)c1ccc(NS(=O)(=O)c2cccs2)cc1 | inconclusive: -73.8%
Cn1c(=O)[nH]c(=O)c2c1nc(N1CCC(Cc3ccccc3)CC1)n2Cc1ccccc1 | inactive: 24%
CCCCNC(=O)c1onc(CSc2ccc(C)c(C)c2)c1C(=O)O | inconclusive: -48.1%
O=C(Nc1nccs1)c1ccc2c(=O)n3c(nc2c1)CCCCC3 | inconclusive: -37.9%
COCc1cc(=O)[nH]c(=S)[nH]1 | inconclusive: -45.2%
COc1ccc(CCNC(=O)C23CN(Cc4ccccc4)CC2C(c2ccc([N+](=O)[O-])cc2)=NO3)cc1 (stereo not drawn) | inactive: 40.9%
O=C(NCCc1ccc2c(c1)OCCO2)c1cccc(F)c1 | inactive: 29.2%
O=C(c1ccc(COc2ccccc2Br)o1)N1N=C(C(F)F)CC1(O)C(F)F (stereo not drawn) | inconclusive: -38.9%
CCOC(=O)N1CCC(NC(=O)CCN2C(=O)COc3ccccc32)CC1 | active: -80.3%
Cc1ccsc1/C=N/NC(=O)CN1CCN(S(=O)(=O)c2ccc(Br)cc2)CC1 | inactive: -28.3%
NS(=O)(=O)c1ccc(S(=O)(=O)N2CCCC2)cc1 | inconclusive: -62.1%
O=C1OC(c2ccco2)=N/C1=C\c1ccc(-c2cccc(C(F)(F)F)c2)o1 | inconclusive: -34.8%
CCOC(=O)C1=C(C)NC2=C(C(=O)c3ccccc32)C1c1cccnc1 (stereo not drawn) | inactive: -18.5%
CCN(CC)CCN1C(=O)c2ccccc2NC1c1cc(OC)c(OC)c(OC)c1 (stereo not drawn) | inconclusive: -69.8%
C=CCSc1nnc(-c2ccccc2NC(=O)CC)c(=O)[nH]1 | inconclusive: -36.4%
CCCCNc1c(NC(C)=O)c(=O)oc2ccccc12 | inconclusive: -51.2%
O=C(NCc1cccnc1)c1ccccc1Br | inconclusive: -45.7%
CCOc1ccc(NC(=O)CSc2nnc(-c3ccccn3)n2N)cc1 | inconclusive: -76.1%
Cc1nc(N2CCC3(CC2)OCCO3)c2nnn(Cc3ccccc3F)c2n1 | inactive: 28.1%
O=C(NC12CC3CC(CC(C3)C1)C2)N1CCC(O)(c2ccc3c(c2)OCO3)CC1 | inconclusive: -54.5%
COCCN(CCOC)Cc1c(C)[nH]c2c(C)c(C)ccc2c1=O | inconclusive: -33.9%

Structure (SMILES) | activity change (PNC), negative = inhibition
COc1cc(CNc2ccc(CNc3ncn[nH]3)cc2)ccc1OCc1ccccc1 | inactive: -4.73%
CC(C)N(CC(N)=O)C(=O)Cc1coc2cc3c(cc12)CCC3 | inconclusive: -30.2%
CCn1cc(SCC(=O)N2CCOCC2)c2ccccc21 | inconclusive: -32.4%
COc1cc(CC(=O)NNC(=O)c2cc(C)oc2C)cc(OC)c1OC | inconclusive: -44.3%
COc1ccc(C(=O)Oc2ccc(/C=N/O)cc2)cc1 | inactive: -17.9%
COc1ccc2nc(NC(=O)C(NS(=O)(=O)c3cccc4nsnc34)C(C)C)sc2c1 (stereo not drawn) | inconclusive: -65.7%
O=C(NCC1CCCO1)C1CCCN1C(=O)NC1CCCCC1 (stereo not drawn) | inactive: 9.17%
CCCCN1CC(C(=O)NC2CCCCC2)CC1=O (stereo not drawn) | inconclusive: -31.1%
Cn1c(=O)c2c(nc(CN3CCC(C(N)=O)CC3)n2Cc2c(F)cccc2Cl)n(C)c1=O | inactive: 54.3%
Cc1ccc(NC(=O)CSc2nnc(NC(=O)CN3CCOCC3)s2)cc1 | active: -117%
CC1CN(C(=O)CSc2nnc3c(Cl)cc(Cl)cn23)CC(C)O1 (stereo not drawn) | inactive: 36.3%
CCOc1ccc(N2CC(C(=O)Nc3ncccc3C)CC2=O)cc1 (stereo not drawn) | inconclusive: -55.8%
CCN1CCN(c2cc(C)c3cc(NC(=O)c4ccc5c(c4)OCO5)ccc3n2)CC1 | inconclusive: -52.3%
C/C(N)=C(\C#N)C(=O)NCCc1ccccn1 | inconclusive: -46.5%
Cc1cccc2cc(COC(=O)C(C)(C)C)c(=O)[nH]c12 | inconclusive: -42.4%
CCCOc1ccc(C(CC(=O)O)NC(=O)C23CC4CC(CC(C4)C2)C3)cc1 (stereo not drawn) | inconclusive: -46.1%
O=C(CCN1C(=O)C2C3C=CC(C3)C2C1=O)NCCc1ccccc1Cl (stereo not drawn) | inactive: 15.6%
COc1cc(NC(=O)c2ccc3c(=O)n(Cc4ccco4)c(=S)[nH]c3c2)cc(OC)c1OC | inactive: -15.1%
CCn1c(COc2cccc3cccnc23)nnc1SCC(=O)O | inconclusive: -48.9%
Cc1nn(-c2ccccc2)c(C)c1/C=N/NC(=O)CSc1nnc(-c2ccccc2)n1-c1ccc(Cl)cc1 | inconclusive: -53.8%
COc1ccccc1/C=C1/C(=O)N(c2cc(C)cc(C)c2)C(c2cccc([N+](=O)[O-])c2)S1(=O)=O (stereo not drawn) | inconclusive: -46.5%
O=C(CCSc1ccc(Cl)cc1)c1cccs1 | inconclusive: -62.5%

A different layout for four compounds above.
CCn1c(COc2cccc3cccnc23)nnc1SCC(=O)O
  activity change (PNC), negative = inhibition: inconclusive: -48.9%
Cc1nn(-c2ccccc2)c(C)c1/C=N/NC(=O)CSc1nnc(-c2ccccc2)n1-c1ccc(Cl)cc1
  activity change (PNC), negative = inhibition: inconclusive: -53.8%
COc1ccccc1/C=C1/C(=O)N(c2cc(C)cc(C)c2)C(c2cccc([N+](=O)[O-])c2)S1(=O)=O (stereo not drawn)
  activity change (PNC), negative = inhibition: inconclusive: -46.5%
O=C(CCSc1ccc(Cl)cc1)c1cccs1
  activity change (PNC), negative = inhibition: inconclusive: -62.5%
